Here are results for 1 molecule from paper PMC7192597, “Mechanistic insights from structure of Mycobacterium smegmatis topoisomerase I with ssDNA bound to both N- and C-terminal domains”.

These are yes or no findings as the source states them, for the method shown. Tags and fused reporters may be left off the sequences shown.

The assay deals with Mycobacterium smegmatis topoisomerase I, 839-residue C-terminally truncated form (MsmTOP1-839t) (M. smegmatis strain mc2 155) (UniProt A0R5D9). Briefly: SAXS; solution small-angle X-ray scattering in a flow cell; MsmTOP1-839t alone and in complex with ssDNA MTS2-25; 1.0, 2.0 and 5.0 mg/ml, extrapolated to zero concentration; both purified.

B1: Mycobacterium smegmatis topoisomerase I, 839-residue C-terminally truncated form (MsmTOP1-839t) (enzyme, UniProt A0R5D9 1-839)
chain: SNAMAGGDRGSGGTGNVRRLVIVESPTKARKIAGYLGSNYVVESSRGHIRDLPRNAADVPAKFKSEPWARLGVNVDQNFEPLYIVSPEKKSTVTELKGLLKDVDELYLATDGDREGEAIAWHLLETLKPRVPVKRMVFHEITEPAIRNAAENPRDLDIALVDAQETRRILDRLYGYEVSPVLWKKVAPKLSAGRVQSVATRIIVQRERERMAFHSASYWDVTAELDASVSDPSASPPKFTAKLNTVDGRRVATGRDFDSLGQLKRPDEVLVLDEASAGALASGLRGAQLAVTSVEQKPYTRRPYAPFMTSTLQQEAARKLRFSSERTMSIAQRLYENGYITYMRTDSTTLSESAINAARTQARQLYGEEYVHPSPRQYTRKVKNAQEAHEAIRPAGDVFQTPGQLHSALDTDEFRLYELIWQRTVASQMADARGTTLSLRIGGSASSGEQVVFNASGRTITFPGFLKAYVESIDELAGGESDDAESRLPNLTQGQRVDAADLSADGHQTSPPARYTEASLIKALEELGIGRPSTYSSIIKTIQDRGYVQKKGSALVPSWVAFAVVGLLEQHFGRLVDYDFTAAMEDELDEIANGQEQRTNWLNNFYFGGEHGVEGSIARAGGLKQLVGGNLEGIDAREVNSIKVFDDSEGRPVYVRVGRNGPYLERMVDDPDNPGEQKPQRANLKEDLTPDELTPELAEKLFATPQEGRSLGIDPETGHEIVAKDGRFGPYVTEVLPEPEDGGDDGTAGTPAKKGKKPTGPKPRTGSLFRSMDLETVTLEDALKLLSLPRVVGVDPTTNEEITAQNGRYGPYLKRGTDSRSLATEDQIFTITLDEALKIYAE
Regarding B1, the binding result was “no binding (tested: 1.0, 2.0 and 5.0 mg/ml)”.
